This assay has as its system L1210 leukemia ip in BDF1 mice, survival T/C. Description: NCI In Vivo Anticancer Drug Screen. Data for tumor model L1210 Leukemia (intraperitoneal) in B6D2F1 (BDF1) mice. As to conditions: T/C endpoint: mean survival time, higher T/C = longer survival.
Where [1] appears, read: dose: 400.0 mg/kg/injection, schedule: Q04DX002 (ip), vehicle: saline.
The mark [2] stands for this setting: dose: 400.0 mg/kg/injection, schedule: Q04DX002 (ip), vehicle: saline with Tween-80.
Setting [3] is: dose: 400.0 mg/kg/injection, schedule: Q01DX009 (ip), vehicle: Klucel (hydroxypropylcellulose) (HPC).
Setting [4] is: dose: 400.0 mg/kg/injection, schedule: Q04DX003 (ip), vehicle: saline.
Setting [5] is: dose: 400.0 mg/kg/injection, schedule: Q01DX009 (ip), vehicle: saline with Tween-80.

The list shows only some results of the screen, not a fair sample: it gathers tests that were run many times, whatever their T/C, doses with no T/C, and many T/C values between a quarter and a half above the control. Other doses and runs of a compound stand elsewhere. T/C is the treated group as % of the vehicle group. Some doses have a count of surviving animals in place of a T/C: the source holds a T/C of zero for them, seemingly a mark for toxic or unscored doses. Some survivor counts are full or nearly so, which does not show that the dose was tolerated: the source hardly ever lists a survival T/C far under the control, and the zero likely stands for such cases as well. Counts of survivors are from the toxicity check (mostly the fifth day) where no day follows; animals may have died later. Schedules are NCI's codes, read here as Q, the interval in days (D) or hours (H), X, the number of doses. Some entries hold several experiments; the results are listed from low to high. Where survival is the endpoint, the PubChem record calls one and a half times the control and up active, and a quarter to a half above the control has no call in these data; cut-offs in other NCI protocols can differ.

On to `C/C(=N/NC(=O)c1ccccc1)c1ccc(Cl)cc1Cl`, for which the survivor count (dose: 400.0 mg/kg/injection, schedule: Q04DX003 (ip), vehicle: other) was 1 of 6.

For the compound `COc1cc2c(cc1OCc1ccccc1)C(C#N)N(C(=O)c1ccccc1)C=C2` (stereo not given), the survivor count (dose: 400.0 mg/kg/injection, schedule: Q01DX009 (ip), vehicle: saline) is given as 6 of 6.

Turning to `CCC(NC(=O)CCl)C(=O)O` (stereo not given), under setting [1], the survivor count is reported as 0 of 3.

For `COc1ccc(CC(C)=C(C#N)C#N)cc1OC`, the survivor count reads like this: (dose: 100.0 mg/kg/injection, schedule: Q04DX002 (ip), vehicle: saline with Tween-80) 1 of 3; (dose: 200.0 mg/kg/injection, schedule: Q04DX002 (ip), vehicle: saline with Tween-80) 0 of 3; under setting [2], 0 of 3.

For `CC(C)(C)C1CCC(=O)CC1`, the survivor count (dose: 200.0 mg/kg/injection, schedule: Q04DX002 (ip), vehicle: saline) is 0 of 3 and the survivor count under setting [1] is given as 0 of 3.

Turning to `CC(O)CNC(=S)c1ccccc1` (stereo not given), under setting [2], the survivor count was 1 of 3.

Turning to `Cc1ccc(C)c(NC(=O)Oc2ccccc2F)c1`, the survivor count under setting [3] was 0 of 6.

Regarding `O=[N+]([O-])c1ccccc1N=N/C(Cc1ccccc1)=N\Nc1ccccc1`, the survivor count (dose: 200.0 mg/kg/injection, schedule: Q04DX003 (ip), vehicle: Klucel (hydroxypropylcellulose) (HPC)) is given as 6 of 6.

As for `CC(C)C(CN)(CCCN1CCCC1)c1cccc2ccccc12` (stereo not given), the survivor count (dose: 200.0 mg/kg/injection, schedule: Q04DX003 (ip), vehicle: saline with Tween-80) was 1 of 6 and the survivor count (dose: 400.0 mg/kg/injection, schedule: Q04DX003 (ip), vehicle: saline with Tween-80) is listed as 0 of 6.

For `O=[N+]([O-])c1ccccc1/C=N/N1CCN(/N=C/c2ccccc2[N+](=O)[O-])CC1`, the survivor count (dose: 100.0 mg/kg/injection, schedule: Q01DX001 (ip), vehicle: carboxymethylcellulose (CMC)) is reported as 4 of 4.

Turning to `COc1ccc(CC[N+]2=Cc3cc(OC)c(OC)cc3CC2)cc1OC`, the survivor count is, setting by setting: (dose: 200.0 mg/kg/injection, schedule: Q01DX009 (ip), vehicle: saline) 2 of 6; under setting [4], 1 of 6.

On to `Nc1ccc(S(=O)(=O)Nc2ccc(Nc3c4ccccc4nc4ccccc34)cc2)cc1`, for which the T/C reads like this: (dose: 1.5 mg/kg/injection, schedule: Q01DX009 (ip), vehicle: saline with Tween-80) 126 % of control; (dose: 3.0 mg/kg/injection, schedule: Q01DX001 (ip), vehicle: saline with Tween-80) 142 % of control; (dose: 3.0 mg/kg/injection, schedule: Q04DX003 (ip), vehicle: saline with Tween-80) 139 % of control; (dose: 6.0 mg/kg/injection, schedule: Q01DX001 (ip), vehicle: saline with Tween-80) 130 % of control; (dose: 6.0 mg/kg/injection, schedule: Q04DX003 (ip), vehicle: saline with Tween-80) 134 % of control; (dose: 12.0 mg/kg/injection, schedule: Q01DX001 (ip), vehicle: saline with Tween-80) 136 % of control. Further, the T/C by setting is: (dose: 12.0 mg/kg/injection, schedule: Q01DX009 (ip), vehicle: saline with Tween-80) 136 % of control; (dose: 12.0 mg/kg/injection, schedule: Q04DX003 (ip), vehicle: saline with Tween-80) 136 % of control; (dose: 24.0 mg/kg/injection, schedule: Q01DX001 (ip), vehicle: saline with Tween-80) 132 % of control; (dose: 24.0 mg/kg/injection, schedule: Q04DX003 (ip), vehicle: saline with Tween-80) 136 % of control.

In the case of `CCCCCCCCCCCCCCCCCC[N+]1(CC)CCOCC1`, under “dose: 12.5 mg/kg/injection, schedule: Q04DX002 (ip), vehicle: carboxymethylcellulose (CMC)”, the T/C is 90, 92, 97, 107 % of control. Besides, the survivor count is, setting by setting: (dose: 25.0 mg/kg/injection, schedule: Q01DX009 (ip), vehicle: carboxymethylcellulose (CMC)) 0 of 6 and 1 of 3; (dose: 50.0 mg/kg/injection, schedule: Q04DX002 (ip), vehicle: carboxymethylcellulose (CMC)) 0 of 3 and 5 of 6; (dose: 100.0 mg/kg/injection, schedule: Q04DX002 (ip), vehicle: carboxymethylcellulose (CMC)) 0 of 3 and 0 of 6; (dose: 200.0 mg/kg/injection, schedule: Q04DX002 (ip), vehicle: carboxymethylcellulose (CMC)) 0 of 3 and 0 of 6; (dose: 400.0 mg/kg/injection, schedule: Q04DX002 (ip), vehicle: carboxymethylcellulose (CMC)) 0 of 3 and 0 of 6.

For `CN(C)CCC(c1ccccc1)c1nc(N)nc(C(CCN(C)C)c2ccccc2)n1` (stereo not given), the survivor count was 0 of 6 (dose: 200.0 mg/kg/injection, schedule: Q01DX009 (ip), vehicle: Klucel (hydroxypropylcellulose) (HPC)); 0 of 3 (dose: 200.0 mg/kg/injection, schedule: Q04DX002 (ip), vehicle: Klucel (hydroxypropylcellulose) (HPC)); 0 of 6 under setting [3].

For the compound `CC(=O)Nc1ccc(N=CN(C)C)cc1`, the survivor count under setting [5] was 4 of 6.

`Cc1ccc(S(=O)(=O)NCl)cc1`: the survivor count was 1 of 6 (dose: 200.0 mg/kg/injection, schedule: Q04DX003 (ip), vehicle: saline) and 0 of 6 under setting [4].

As to `O=NN(CCCl)C(=O)Nc1ccc(SCC(=O)O)cc1`, the T/C reads like this: (dose: 8.0 mg/kg/injection, schedule: Q01DX001 (ip), vehicle: carboxymethylcellulose (CMC)) 133 % of control; (dose: 12.0 mg/kg/injection, schedule: Q01DX001 (ip), vehicle: carboxymethylcellulose (CMC)) 130 % of control; (dose: 40.0 mg/kg/injection, schedule: Q01DX001 (ip), vehicle: carboxymethylcellulose (CMC)) 139 % of control. The survivor count was 5 of 6 (dose: 60.0 mg/kg/injection, schedule: Q01DX001 (ip), vehicle: carboxymethylcellulose (CMC)); 6 of 6 (dose: 93.0 mg/kg/injection, schedule: Q01DX001 (ip), vehicle: carboxymethylcellulose (CMC)); 2 of 6 (dose: 125.0 mg/kg/injection, schedule: Q01DX001 (ip), vehicle: carboxymethylcellulose (CMC)); 0 of 6 (dose: 187.0 mg/kg/injection, schedule: Q01DX001 (ip), vehicle: carboxymethylcellulose (CMC)); 0 of 6 (dose: 250.0 mg/kg/injection, schedule: Q01DX001 (ip), vehicle: carboxymethylcellulose (CMC)); 0 of 6 (dose: 375.0 mg/kg/injection, schedule: Q01DX001 (ip), vehicle: carboxymethylcellulose (CMC)). The survivor count (dose: 500.0 mg/kg/injection, schedule: Q01DX001 (ip), vehicle: carboxymethylcellulose (CMC)) was 0 of 6.

`c1ccc(CSc2nccc(NN=C3CCCCC3)n2)cc1`: the survivor count reads like this: (dose: 100.0 mg/kg/injection, schedule: Q01DX001 (ip), vehicle: DMSO) 6 of 6; (dose: 300.0 mg/kg/injection, schedule: Q01DX009 (ip), vehicle: DMSO) 4 of 6.

In the case of `CSc1ccc(C(=O)Nc2c(N)ncnc2N)cc1`, the survivor count runs as follows: (dose: 200.0 mg/kg/injection, schedule: Q01DX001 (ip), vehicle: saline with Tween-80) 0 of 6; (dose: 400.0 mg/kg/injection, schedule: Q01DX001 (ip), vehicle: saline with Tween-80) 1 of 6.

Regarding `COc1ccccc1OC(=O)CCl`, the survivor count runs as follows: (dose: 100.0 mg/kg/injection, schedule: Q01DX009 (ip), vehicle: saline with Tween-80) 6 of 6; (dose: 200.0 mg/kg/injection, schedule: Q01DX009 (ip), vehicle: saline with Tween-80) 3 of 6; under setting [5], 0 of 6.

In the case of `CCC(C)P(=O)(N1CC1)N1CC1` (stereo not given), the survivor count (dose: 64.0 mg/kg/injection, schedule: Q01DX015 (ip), vehicle: carboxymethylcellulose (CMC)) is 6 of 6.

For `CCOC(=O)CNC(=O)CNC(=O)CCCCSc1ncnc2nc[nH]c12`, the survivor count (dose: 25.0 mg/kg/injection, schedule: Q01DX009 (oral), vehicle: saline) was 6 of 6.

Turning to `OC1CCC2NCCCC2C1` (stereo not given), for the setting “dose: 300.0 mg/kg/injection, schedule: Q01DX001 (ip), vehicle: carboxymethylcellulose (CMC)”, the survivor count is on record as 1 of 6.

Consider `CC(C)CCCC(C)C1CCC2C3CC=C4CC(OCCO)CCC4(C)C3CCC12C` (stereo not given), for which the survivor count (dose: 50.0 mg/kg/injection, schedule: Q01DX009 (ip), vehicle: other) is listed as 3 of 3.

Take `CNc1c(Cl)c(Cl)cc(Cl)c1Cl`: the survivor count under setting [5] is on record as 6 of 6.

Source of the values: PubChem BioAssay AID248 (DTP/NCI, 2004).
